Measured values reported in US20120328623A1 (Kyowa Kirin, published 2012).
These are yes or no findings as the source states them, for the method shown. Some results given as binding are weak or reduced against the parent protein; the word gives no strength.

Chains of the proteins cited; added tags and fusions are not shown. Lines headed by an entry give the natural chain unless they say otherwise; changes in a name come on top.
UniProt Q61526: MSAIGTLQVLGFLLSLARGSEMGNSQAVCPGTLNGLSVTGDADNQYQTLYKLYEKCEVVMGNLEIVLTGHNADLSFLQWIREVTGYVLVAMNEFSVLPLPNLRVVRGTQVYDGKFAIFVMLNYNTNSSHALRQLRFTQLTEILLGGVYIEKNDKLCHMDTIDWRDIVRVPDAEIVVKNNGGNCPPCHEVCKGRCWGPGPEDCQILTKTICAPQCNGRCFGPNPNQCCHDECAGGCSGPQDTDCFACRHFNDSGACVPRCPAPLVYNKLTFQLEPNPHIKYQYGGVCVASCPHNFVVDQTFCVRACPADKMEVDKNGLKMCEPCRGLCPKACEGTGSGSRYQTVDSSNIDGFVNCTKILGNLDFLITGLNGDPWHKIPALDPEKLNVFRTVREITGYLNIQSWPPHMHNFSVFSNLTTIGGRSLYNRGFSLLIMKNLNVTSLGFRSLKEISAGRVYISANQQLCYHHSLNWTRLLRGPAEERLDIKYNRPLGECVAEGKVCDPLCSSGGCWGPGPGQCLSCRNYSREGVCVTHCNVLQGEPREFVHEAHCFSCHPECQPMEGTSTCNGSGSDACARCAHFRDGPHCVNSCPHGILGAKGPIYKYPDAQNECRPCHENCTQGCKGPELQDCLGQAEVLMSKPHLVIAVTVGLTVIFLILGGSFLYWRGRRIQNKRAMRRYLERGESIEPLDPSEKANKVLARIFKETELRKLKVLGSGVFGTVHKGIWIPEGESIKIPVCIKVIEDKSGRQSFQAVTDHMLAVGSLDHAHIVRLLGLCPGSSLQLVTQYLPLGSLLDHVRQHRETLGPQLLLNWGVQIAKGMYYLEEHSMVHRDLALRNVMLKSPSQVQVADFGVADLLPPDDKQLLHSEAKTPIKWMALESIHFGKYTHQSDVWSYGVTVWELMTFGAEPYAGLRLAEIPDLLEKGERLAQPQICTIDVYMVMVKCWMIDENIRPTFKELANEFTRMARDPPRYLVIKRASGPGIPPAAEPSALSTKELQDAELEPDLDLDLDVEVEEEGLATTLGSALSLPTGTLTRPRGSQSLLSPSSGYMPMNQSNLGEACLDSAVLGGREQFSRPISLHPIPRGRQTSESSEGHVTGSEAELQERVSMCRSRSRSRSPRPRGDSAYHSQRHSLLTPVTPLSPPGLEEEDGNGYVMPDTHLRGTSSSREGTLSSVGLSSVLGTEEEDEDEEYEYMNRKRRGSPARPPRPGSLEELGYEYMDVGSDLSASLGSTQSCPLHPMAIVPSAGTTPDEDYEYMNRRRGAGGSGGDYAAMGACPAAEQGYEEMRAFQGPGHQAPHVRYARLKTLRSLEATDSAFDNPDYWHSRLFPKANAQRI
UniProt P21860: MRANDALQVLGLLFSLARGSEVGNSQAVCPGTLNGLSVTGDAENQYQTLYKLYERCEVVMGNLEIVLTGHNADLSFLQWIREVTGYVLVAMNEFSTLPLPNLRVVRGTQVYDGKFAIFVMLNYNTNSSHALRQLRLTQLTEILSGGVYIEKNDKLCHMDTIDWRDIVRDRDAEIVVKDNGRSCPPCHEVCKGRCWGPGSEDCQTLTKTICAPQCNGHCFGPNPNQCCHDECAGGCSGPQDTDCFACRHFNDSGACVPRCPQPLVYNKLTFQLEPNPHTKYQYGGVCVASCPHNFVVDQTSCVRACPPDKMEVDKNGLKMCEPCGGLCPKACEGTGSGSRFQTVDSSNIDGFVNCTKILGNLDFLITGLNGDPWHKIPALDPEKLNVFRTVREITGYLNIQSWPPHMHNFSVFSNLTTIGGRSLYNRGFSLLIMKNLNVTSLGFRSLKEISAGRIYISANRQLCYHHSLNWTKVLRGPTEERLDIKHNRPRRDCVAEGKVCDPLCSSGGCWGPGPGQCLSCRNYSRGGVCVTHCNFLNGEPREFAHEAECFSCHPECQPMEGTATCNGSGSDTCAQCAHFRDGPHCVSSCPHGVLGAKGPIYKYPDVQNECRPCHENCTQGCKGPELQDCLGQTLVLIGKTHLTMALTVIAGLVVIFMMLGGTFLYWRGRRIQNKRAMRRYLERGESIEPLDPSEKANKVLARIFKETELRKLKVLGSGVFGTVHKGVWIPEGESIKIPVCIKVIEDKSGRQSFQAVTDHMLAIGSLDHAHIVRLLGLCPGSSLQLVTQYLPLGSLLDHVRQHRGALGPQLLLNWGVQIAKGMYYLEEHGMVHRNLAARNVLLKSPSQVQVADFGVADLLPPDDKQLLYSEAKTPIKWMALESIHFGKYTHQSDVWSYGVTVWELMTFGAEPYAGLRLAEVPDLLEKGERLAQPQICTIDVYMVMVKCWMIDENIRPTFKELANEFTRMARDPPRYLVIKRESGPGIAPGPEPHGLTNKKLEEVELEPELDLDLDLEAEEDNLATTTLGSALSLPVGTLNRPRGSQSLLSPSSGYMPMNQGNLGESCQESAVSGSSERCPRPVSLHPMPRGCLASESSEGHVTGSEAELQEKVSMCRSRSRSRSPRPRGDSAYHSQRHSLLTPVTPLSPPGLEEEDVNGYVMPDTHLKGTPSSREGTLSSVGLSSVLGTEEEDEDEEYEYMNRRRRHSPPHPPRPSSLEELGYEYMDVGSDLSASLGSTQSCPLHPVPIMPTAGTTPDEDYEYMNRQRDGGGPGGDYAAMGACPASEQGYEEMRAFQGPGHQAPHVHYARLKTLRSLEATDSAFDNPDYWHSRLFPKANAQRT

What was measured:
Experiment in all cases: binding ELISA, GST fusion captured by anti-GST
[1] = target: human-mouse chimeric erbB3 extracellular domain with human domain 1 and mouse domains 2 to 4, GST fusion (human; mouse) (UniProt Q61526)
[2] = target: human-mouse chimeric erbB3 extracellular domain with human domains 1 and 2 and mouse domains 3 and 4, GST fusion (human; mouse) (UniProt Q61526)
[3] = target: human-mouse chimeric erbB3 extracellular domain with human domains 1 to 3 and mouse domain 4, GST fusion (human; mouse) (UniProt P21860)

B1: anti-human erbB3 monoclonal antibody 12511 (antibody, V domains shown)
VH: QIQLQQSGPELVNPGASVKISCKPSGYTFTDYYINWVKQRPGQGLEWIGWIHPGGGYTKYNEKFRGKATVTVDTSANTVYMQLSSLTSDDSAVYFCARRDYGDYGFAYWGQGTLVTVSA
VL: DIVLTQSPASLAVSLGQRATISCRVSESVDSYGNSFMHWYQQKPGQPPKLLIYRASNLESGIPDRFSGSVSRTDFTLTINPVEPDDVATYYCQQTNEDPPTFGGGTKLEIK
binding [1]: binds | binding [2]: binds | binding [3]: binds

B2: anti-human erbB3 monoclonal antibody 1153 (antibody, V domains shown)
VH: QVQLQQSGAELVRPGTSVKMSCKAAGYTFTNYWIVWVKQRPGHGLEWIGDIYPGSGHTNYNEKFKGKATLTADTSSSTANMQLSSLTSEDSAIYYCVRPINYDGSYDYWGQGTTLTVSS
VL: DIQMNQSPSSLSASLGDTITITCHASQNINVWLSWYQQKPGNIPKLLIYKASNLHTGVPSRFSGSGSGTGFTLTISSLQPEDIATYYCQQGQSYPRTFGGGTKLEIR
binding [1]: binds | binding [2]: binds | binding [3]: binds

B3: anti-human erbB3 monoclonal antibody 920104 (antibody, V domains shown)
VH: VQLQESGPGLVKPSQSLSLTCSVTGYSFTNGYYWNWIRQFPGNKLEWMGYISYDGNNSYNPSLKNRISITRDTSKNQFFLKLNSVTTEDTATYYCASHGYYEEDYYAMDYWGQGTSVTVSS
VL: DIVLTQSPASLAVSLGQRATISCRASKSVSTSGYSYMHWYQQKPGQPPKLLIYLASNLESGVPARFSGSGSGTDFTLNIHPVEEEDAATYYCQHSRELPLTFGAGTKLELK
binding [3]: binds
